PubChem BioAssay AID743121 – NCATS – 2013
The whole screen tested about 26,000 reagents; shown is a random part of them. Over the whole deposit, 167 (0.63%) got an active call. 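Calls are per gene from RSA p-values that are not deposited; an individual active-marked siRNA can sensitise only weakly.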

Aim: 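Genes whose silencing strengthens cell killing by camptothecin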 (primary screen)
Cell system: MDA-MB-231 cells, a human breast cancer line
Knock-down reagent: single siRNA against human genes, 20 nM siRNA (0.8 pmol per well)
Duration: 120 h (drug added 48 h after transfection, read 72 h later)
Challenge: camptothecin 20 nM (about EC30) for 72 h; vehicle 0.1% DMSO in parallel plates
Measured: 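Cell viability by ATP luminescence (CellTiter-Glo) as % of non-targeting siRNA wells, and the log2 ratio of viability without drug over viability with camptothecin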
Reading the numbers: log2 vehicle/camptothecin viability: higher = stronger sensitisation to camptothecin; viability with camptothecin and viability without drug: higher = more viable cells
Call rule: 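Active genes have an RSA gene-level p-value below 0.001, computed from the ratios of their separate siRNAs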

| target gene | PubChem SID | log2 vehicle/camptothecin viability | viability with camptothecin (% of control) | viability without drug (% of control) | Call |
| --- | --- | --- | --- | --- | --- |
| RNF167 (GeneID 26001) | SID164458236 | -0.111 | 51.2 | 47.4 | inactive |
| RNF167 (GeneID 26001) | SID164458237 | -0.301 | 67.1 | 54.5 | inactive |
| RNF167 (GeneID 26001) | SID164458238 | -0.326 | 104 | 83 | inactive |
| RNF167 (GeneID 26001) | SID164458239 | -0.264 | 92.4 | 77 | inactive |
| NME2 (GeneID 4831) | SID164378098 | -0.107 | 69.4 | 64.4 | inactive |
| NME2 (GeneID 4831) | SID164378100 | 0.0285 | 77.9 | 79.5 | inactive |
| NME2 (GeneID 4831) | SID164709343 | -0.383 | 58.8 | 45.1 | inactive |
| NME2 (GeneID 4831) | SID164709345 | -0.233 | 69.8 | 59.4 | inactive |
| NME2 (GeneID 4831) | SID164709349 | -0.272 | 62.4 | 51.7 | inactive |
| NME2 (GeneID 4831) | SID164709353 | -0.044 | 57.2 | 55.5 | inactive |
| NME2 (GeneID 4831) | SID174316025 | -0.233 | 51.6 | 43.9 | inactive |
| OR6B3 (GeneID 150681) | SID164576039 | -0.262 | 76.5 | 63.8 | inactive |
| OR6B3 (GeneID 150681) | SID164576040 | -0.259 | 74.2 | 62 | inactive |
| OR6B3 (GeneID 150681) | SID164576042 | -0.602 | 79 | 52.1 | inactive |
| OR6B3 (GeneID 150681) | SID164576043 | -0.344 | 106 | 83.3 | inactive |
| DTX2 (GeneID 113878) | SID164560110 | 0.486 | 67.5 | 94.5 | inactive |
| DTX2 (GeneID 113878) | SID164560112 | -0.262 | 59.4 | 49.5 | inactive |
| DTX2 (GeneID 113878) | SID164560114 | 0.377 | 53.3 | 69.3 | inactive |
| DTX2 (GeneID 113878) | SID174316093 | -0.423 | 71.8 | 53.6 | inactive |
| ITGAL (GeneID 3683) | SID164371972 | 0.15 | 52.2 | 57.9 | inactive |
| ITGAL (GeneID 3683) | SID164371974 | -0.482 | 32.6 | 23.3 | inactive |
| ITGAL (GeneID 3683) | SID164371975 | -0.172 | 108 | 95.4 | inactive |
| ITGAL (GeneID 3683) | SID164371976 | 0.236 | 53.8 | 63.3 | inactive |
| SP110 (GeneID 3431) | SID164370747 | 0.025 | 75.8 | 77.1 | inactive |
| SP110 (GeneID 3431) | SID164370748 | -0.377 | 83.6 | 64.3 | inactive |
| SP110 (GeneID 3431) | SID164370751 | -0.295 | 104 | 84.9 | inactive |
| MS4A4A (GeneID 51338) | SID164473454 | 0.0184 | 36.5 | 36.9 | inactive |
| MS4A4A (GeneID 51338) | SID164473455 | -0.228 | 32.8 | 28 | inactive |
| MS4A4A (GeneID 51338) | SID164473457 | 0.321 | 54.4 | 67.9 | inactive |
| MS4A4A (GeneID 51338) | SID164473461 | -0.315 | 77.9 | 62.6 | inactive |
| CELSR2 (GeneID 1952) | SID164362826 | -0.19 | 38.9 | 34.1 | inactive |
| CELSR2 (GeneID 1952) | SID164362827 | 0.17 | 65.2 | 73.4 | inactive |
| CELSR2 (GeneID 1952) | SID164362829 | -0.214 | 86.5 | 74.5 | inactive |
| CELSR2 (GeneID 1952) | SID164362832 | -0.527 | 79.2 | 55 | inactive |

Targets listed so far whose target name starts with O or o:
| target gene | PubChem SID | log2 vehicle/camptothecin viability | viability with camptothecin (% of control) | viability without drug (% of control) | Call |
| --- | --- | --- | --- | --- | --- |
| OR6B3 (GeneID 150681) | SID164576039 | -0.262 | 76.5 | 63.8 | inactive |
| OR6B3 (GeneID 150681) | SID164576040 | -0.259 | 74.2 | 62 | inactive |
| OR6B3 (GeneID 150681) | SID164576042 | -0.602 | 79 | 52.1 | inactive |
| OR6B3 (GeneID 150681) | SID164576043 | -0.344 | 106 | 83.3 | inactive |

The listing continues.
| target gene | PubChem SID | log2 vehicle/camptothecin viability | viability with camptothecin (% of control) | viability without drug (% of control) | Call |
| --- | --- | --- | --- | --- | --- |
| CLIC2 (GeneID 1193) | SID164358737 | -0.17 | 113 | 100 | inactive |
| CLIC2 (GeneID 1193) | SID164358739 | -0.12 | 56.3 | 51.8 | inactive |
| CLIC2 (GeneID 1193) | SID164358740 | -0.06 | 86.7 | 83.1 | inactive |
| PRMT3 (GeneID 10196) | SID164409341 | -0.334 | 93.6 | 74.2 | inactive |
| PRMT3 (GeneID 10196) | SID164409344 | 0.011 | 82.3 | 82.9 | inactive |
| PRMT3 (GeneID 10196) | SID164409347 | -0.307 | 48.5 | 39.2 | inactive |
| PRMT3 (GeneID 10196) | SID164409348 | -0.0711 | 34.7 | 33 | inactive |
| GAD2 (GeneID 2572) | SID164365826 | 0.354 | 29.1 | 37.1 | inactive |
| GAD2 (GeneID 2572) | SID164365828 | -0.169 | 83.5 | 74.3 | inactive |
| GAD2 (GeneID 2572) | SID164365830 | -0.383 | 56.4 | 43.2 | inactive |
| GAD2 (GeneID 2572) | SID164365834 | -0.291 | 105 | 86 | inactive |
| MMP13 (GeneID 4322) | SID164375843 | -0.0981 | 85.6 | 80 | inactive |
| MMP13 (GeneID 4322) | SID164375845 | -0.912 | 54.6 | 29 | inactive |
| MMP13 (GeneID 4322) | SID164375847 | 0.0259 | 106 | 108 | inactive |
| MMP13 (GeneID 4322) | SID164375848 | -0.34 | 88.8 | 70.2 | inactive |
| EIF2AK1 (GeneID 27102) | SID164462435 | -0.775 | 59.3 | 34.7 | inactive |
| EIF2AK1 (GeneID 27102) | SID164462436 | 0.096 | 77.7 | 83.1 | inactive |
| EIF2AK1 (GeneID 27102) | SID164462437 | 0.158 | 75.2 | 83.8 | inactive |
| EIF2AK1 (GeneID 27102) | SID164462439 | -0.106 | 71.5 | 66.4 | inactive |
| QSOX1 (GeneID 5768) | SID164383831 | -0.489 | 110 | 78.7 | inactive |
| QSOX1 (GeneID 5768) | SID164383832 | 0.158 | 40.8 | 45.5 | inactive |
| QSOX1 (GeneID 5768) | SID164383833 | -0.348 | 81.4 | 64 | inactive |
| QSOX1 (GeneID 5768) | SID164383834 | -0.363 | 49.9 | 38.8 | inactive |
| CAV3 (GeneID 859) | SID164356711 | -0.206 | 62.1 | 53.8 | inactive |
| CAV3 (GeneID 859) | SID164356713 | -0.295 | 96.3 | 78.5 | inactive |
| CAV3 (GeneID 859) | SID164356714 | 0.281 | 54.7 | 66.5 | inactive |
| SLC9A1 (GeneID 6548) | SID164388484 | 0.0154 | 74.7 | 75.5 | inactive |
| SLC9A1 (GeneID 6548) | SID164388486 | 0.0837 | 57.5 | 61 | inactive |
| SLC9A1 (GeneID 6548) | SID164388487 | -0.172 | 102 | 90.6 | inactive |
| SLC9A1 (GeneID 6548) | SID164388488 | -0.566 | 94.4 | 63.7 | inactive |
| PIP5K1B (GeneID 8395) | SID164397346 | -0.405 | 109 | 82.6 | inactive |
| PIP5K1B (GeneID 8395) | SID164397347 | 0.0898 | 22 | 23.4 | inactive |
| PIP5K1B (GeneID 8395) | SID164397350 | 0.595 | 28.9 | 43.6 | inactive |
| PIP5K1B (GeneID 8395) | SID164397351 | 0.199 | 55.1 | 63.3 | inactive |
